Test results reported in publication PMC11653702, “Targeting the SPC25/RIOK1/MYH9 Axis to Overcome Tumor Stemness and Platinum Resistance in Epithelial Ovarian Cancer” (Advanced Science, 2024).

Protein sequences, listed by entry. Tags and fused reporters are not part of them.
UniProt Q9HBM1: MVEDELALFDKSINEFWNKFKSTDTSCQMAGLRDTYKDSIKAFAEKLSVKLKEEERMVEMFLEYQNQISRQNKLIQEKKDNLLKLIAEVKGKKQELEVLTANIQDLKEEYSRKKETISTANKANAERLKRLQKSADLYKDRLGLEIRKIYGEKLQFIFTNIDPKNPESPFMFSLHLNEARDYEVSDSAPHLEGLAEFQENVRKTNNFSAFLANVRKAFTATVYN
UniProt P35579: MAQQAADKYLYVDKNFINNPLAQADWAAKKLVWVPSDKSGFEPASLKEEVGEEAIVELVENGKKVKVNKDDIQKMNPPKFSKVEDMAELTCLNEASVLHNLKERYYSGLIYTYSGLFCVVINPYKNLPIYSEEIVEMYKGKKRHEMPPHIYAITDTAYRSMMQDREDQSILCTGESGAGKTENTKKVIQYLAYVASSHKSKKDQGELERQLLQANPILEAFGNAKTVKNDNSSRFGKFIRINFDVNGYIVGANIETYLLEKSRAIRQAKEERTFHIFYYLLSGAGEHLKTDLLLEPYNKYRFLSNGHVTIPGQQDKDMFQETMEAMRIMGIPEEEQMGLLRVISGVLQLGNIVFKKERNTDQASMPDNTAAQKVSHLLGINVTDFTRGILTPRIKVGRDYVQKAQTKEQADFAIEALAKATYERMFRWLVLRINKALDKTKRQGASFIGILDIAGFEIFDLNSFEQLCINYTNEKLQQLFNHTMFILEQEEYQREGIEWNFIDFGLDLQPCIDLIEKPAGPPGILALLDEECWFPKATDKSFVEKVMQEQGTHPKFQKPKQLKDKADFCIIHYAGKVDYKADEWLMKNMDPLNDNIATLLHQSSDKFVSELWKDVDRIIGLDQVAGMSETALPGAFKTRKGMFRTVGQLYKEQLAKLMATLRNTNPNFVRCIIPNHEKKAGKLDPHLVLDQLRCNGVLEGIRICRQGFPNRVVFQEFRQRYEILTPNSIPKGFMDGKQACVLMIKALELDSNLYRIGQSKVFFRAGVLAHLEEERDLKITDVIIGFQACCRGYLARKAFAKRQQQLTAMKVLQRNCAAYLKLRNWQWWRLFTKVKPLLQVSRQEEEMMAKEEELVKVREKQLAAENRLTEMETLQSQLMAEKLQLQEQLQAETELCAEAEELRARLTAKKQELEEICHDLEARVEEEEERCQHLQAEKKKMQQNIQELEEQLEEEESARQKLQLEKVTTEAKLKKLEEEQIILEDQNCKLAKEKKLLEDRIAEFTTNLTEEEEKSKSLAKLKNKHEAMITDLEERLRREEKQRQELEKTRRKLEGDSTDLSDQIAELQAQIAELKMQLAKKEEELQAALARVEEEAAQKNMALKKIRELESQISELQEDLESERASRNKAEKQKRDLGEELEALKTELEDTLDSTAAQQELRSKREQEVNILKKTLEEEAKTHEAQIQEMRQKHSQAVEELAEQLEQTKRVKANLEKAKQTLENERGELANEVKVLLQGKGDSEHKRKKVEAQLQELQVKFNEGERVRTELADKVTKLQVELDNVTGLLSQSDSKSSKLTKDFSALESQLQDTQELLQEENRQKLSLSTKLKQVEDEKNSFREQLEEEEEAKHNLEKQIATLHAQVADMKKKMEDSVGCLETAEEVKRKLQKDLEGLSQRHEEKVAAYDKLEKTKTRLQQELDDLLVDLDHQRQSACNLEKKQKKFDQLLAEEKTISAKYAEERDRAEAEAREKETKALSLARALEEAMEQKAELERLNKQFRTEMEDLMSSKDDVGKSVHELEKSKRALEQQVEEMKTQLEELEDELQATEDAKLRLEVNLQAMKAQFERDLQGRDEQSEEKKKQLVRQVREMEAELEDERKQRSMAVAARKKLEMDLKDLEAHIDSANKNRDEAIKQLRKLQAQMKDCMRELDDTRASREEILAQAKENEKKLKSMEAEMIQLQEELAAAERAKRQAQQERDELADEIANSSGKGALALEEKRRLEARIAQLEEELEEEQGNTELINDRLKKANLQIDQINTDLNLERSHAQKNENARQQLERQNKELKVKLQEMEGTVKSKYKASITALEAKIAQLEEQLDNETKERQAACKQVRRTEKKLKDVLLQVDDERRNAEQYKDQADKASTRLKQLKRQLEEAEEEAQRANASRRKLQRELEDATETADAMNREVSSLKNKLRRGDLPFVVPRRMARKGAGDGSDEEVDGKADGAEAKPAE

Tests used:
[1] = target: spindle pole body component 25 (SPC25), endogenous (human (endogenous in OVCAR8)) (UniProt Q9HBM1); assay: affinity purification with mass spectrometry; Co-IP-MS with anti-SPC25 in cytoplasmic lysates of OVCAR8 cells (LC-MS)
[2] = target: spindle pole body component 25 (SPC25), endogenous (human (endogenous in OVCAR8)) (UniProt Q9HBM1); assay: as above; remark: listed apart in the source

Row | Molecule | binding [1] | binding [2]
1 | MYH9, also called nonmuscle myosin IIA (NMIIA), endogenous (from UniProt P35579 1-1960) | binds | –
2 | RIOK1, endogenous (enzyme, UniProt Q9BRS2 1-568) MDYRRLLMSRVVPGQFDDADSSDSENRDLKTVKEKDDILFEDLQDNVNENGEGEIEDEEEEGYDDDDDDWDWDEGVGKLAKGYVWNGGSNPQANRQTSDSSSAKMSTPADKVLRKFENKINLDKLNVTDSVINKVTEKSRQKEADMYRIKDKADRATVEQVLDPRTRMILFKMLTRGIITEINGCISTGKEANVYHASTANGESRAIKIYKTSILVFKDRDKYVSGEFRFRHGYCKGNPRKMVKTWAEKEMRNLIRLNTAEIPCPEPIMLRSHVLVMSFIGKDDMPAPLLKNVQLSESKARELYLQVIQYMRRMYQDARLVHADLSEFNMLYHGGGVYIIDVSQSVEHDHPHALEFLRKDCANVNDFFMRHSVAVMTVRELFEFVTDPSITHENMDAYLSKAMEIASQRTKEERSSQDHVDEEVFKRAYIPRTLNEVKNYERDMDIIMKLKEEDMAMNAQQDNILYQTVTGLKKDLSGVQKVPALLENQVEERTCSDSEDIGSSECSDTDSEEQGDHARPKKHTTDPDIDKKERKKMVKEAQREKRKNKIPKHVKKRKEKTAKTKKGK | – | binds

Where two headings read alike, the source gives them in different places. No constants are given. Whether binding was seen depends on the method and setting. In cells and extracts the contact can be indirect. A yes stands for co-enrichment or nearness to the bait. Other partners may have been found.
